By UniProt entry, the sequences of proteins in these tests, tags left out.
UniProt Q9JIF0: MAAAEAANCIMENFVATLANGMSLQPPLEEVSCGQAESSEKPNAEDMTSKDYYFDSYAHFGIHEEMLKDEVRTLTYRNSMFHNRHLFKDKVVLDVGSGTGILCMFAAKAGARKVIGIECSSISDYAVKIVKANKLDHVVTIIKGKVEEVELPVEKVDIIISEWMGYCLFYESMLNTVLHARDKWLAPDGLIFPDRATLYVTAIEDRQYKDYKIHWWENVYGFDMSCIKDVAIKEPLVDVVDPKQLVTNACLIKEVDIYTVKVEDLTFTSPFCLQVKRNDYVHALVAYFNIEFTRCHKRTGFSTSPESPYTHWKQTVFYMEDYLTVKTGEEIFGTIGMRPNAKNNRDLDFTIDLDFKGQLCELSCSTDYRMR

In publication PMC2440817:

Experiments:
[1] = target: double constitutive negative mutant RIP140 (D-CN) expressed in RIP140 null adipocytes (mouse) (UniProt Q8CBD1); assay: co-IP; RIP140 null adipocytes reconstituted with WT, D-CN or D-CP RIP140; association with endogenous 14-3-3 and PRMT1
[2] = target: T1, Receptor interacting protein 140 (RIP140), endogenous (mouse (endogenous in 3T3-L1)) (UniProt Q8CBD1); assay: co-IP; cytoplasmic fraction of differentiating adipocyte cultures, time course of differentiation
T1 sequence: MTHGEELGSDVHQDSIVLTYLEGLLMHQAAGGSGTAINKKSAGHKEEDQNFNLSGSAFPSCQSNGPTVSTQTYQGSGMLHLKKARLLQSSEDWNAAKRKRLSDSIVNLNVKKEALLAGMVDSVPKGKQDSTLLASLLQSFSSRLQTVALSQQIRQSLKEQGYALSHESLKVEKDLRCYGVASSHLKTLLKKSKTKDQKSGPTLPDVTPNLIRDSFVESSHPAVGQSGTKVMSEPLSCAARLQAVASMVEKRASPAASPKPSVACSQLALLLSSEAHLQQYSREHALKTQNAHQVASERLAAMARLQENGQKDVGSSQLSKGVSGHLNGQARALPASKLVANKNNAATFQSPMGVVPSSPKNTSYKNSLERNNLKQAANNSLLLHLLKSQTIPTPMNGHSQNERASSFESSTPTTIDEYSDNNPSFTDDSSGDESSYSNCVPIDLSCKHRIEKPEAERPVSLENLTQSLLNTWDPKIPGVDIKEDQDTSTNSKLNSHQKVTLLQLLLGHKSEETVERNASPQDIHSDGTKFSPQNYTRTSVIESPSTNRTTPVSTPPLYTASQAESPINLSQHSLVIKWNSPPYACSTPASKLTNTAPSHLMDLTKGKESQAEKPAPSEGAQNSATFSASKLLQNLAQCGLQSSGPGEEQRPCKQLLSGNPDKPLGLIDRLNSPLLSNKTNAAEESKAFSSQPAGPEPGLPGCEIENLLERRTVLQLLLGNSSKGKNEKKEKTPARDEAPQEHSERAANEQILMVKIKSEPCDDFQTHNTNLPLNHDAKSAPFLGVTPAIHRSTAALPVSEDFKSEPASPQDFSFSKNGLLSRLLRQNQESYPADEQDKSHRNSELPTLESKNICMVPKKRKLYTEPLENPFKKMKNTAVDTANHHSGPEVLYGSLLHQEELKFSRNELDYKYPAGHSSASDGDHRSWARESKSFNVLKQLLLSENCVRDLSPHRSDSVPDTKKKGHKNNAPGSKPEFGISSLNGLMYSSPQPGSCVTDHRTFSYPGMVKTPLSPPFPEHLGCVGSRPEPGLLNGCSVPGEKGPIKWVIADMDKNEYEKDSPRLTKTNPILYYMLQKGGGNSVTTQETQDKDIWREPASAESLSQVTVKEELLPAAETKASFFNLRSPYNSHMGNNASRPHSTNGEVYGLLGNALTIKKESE

[3] = target: T1, Receptor interacting protein 140 (RIP140), endogenous (mouse (endogenous in 3T3-L1)); assay: co-IP; endogenous proteins in differentiating adipocyte cultures after siRNA knockdown of PKCε
[4] = target: T1, Receptor interacting protein 140 (RIP140), endogenous (mouse (endogenous in 3T3-L1)); assay: co-IP; endogenous proteins in differentiated (8 day) 3T3-L1 adipocyte extracts; IP with antibodies to RIP140, 14-3-3 or PRMT1, protein G-agarose; 150 mM NaCl, 50 mM Tris-HCl pH 8.0, 0.2% NP-40, 0.1% SDS, 4°C overnight; cells untreated or treated with MAPK or PKC activators/inhibitors (PMA, calphostin C), or with siRNA to 14-3-3β or PRMT1
[5] = target: T1, Receptor interacting protein 140 (RIP140), endogenous (mouse (endogenous in 3T3-L1)); assay: co-IP; sequential IP: the RIP140/PRMT1 or RIP140/14-3-3 immuno-complex from differentiated adipocyte extracts was examined for the third partner
[6] = target: T2, double phospho-mimetic mutant RIP140 (D-CP) expressed in RIP140 null adipocytes (mouse) (UniProt Q8CBD1); assay: co-IP; RIP140 null adipocytes reconstituted with WT, D-CN or D-CP RIP140; association with endogenous 14-3-3 and PRMT1
T2 sequence: T1 sequence with S102E, S1003E

[7] = target: T3, wild type RIP140 re-expressed in RIP140 null adipocytes (mouse) (UniProt Q8CBD1); assay: as above
T3 sequence: T1 sequence

[8] = target: T1, Receptor interacting protein 140 (RIP140), endogenous (mouse (endogenous in 3T3-L1)); assay: co-IP; nuclear fraction of differentiating adipocyte cultures, time course of differentiation

Row | Substance | binding [1] | binding [2] | binding [3] | binding [4] | binding [5] | binding [6] | binding [7] | binding [8]
1 | protein arginine methyl transferase 1 (PRMT1), endogenous (from UniProt Q9JIF0 1-371) (enzyme) | no binding |  |  |  |  |  |  | 
2 | 14-3-3β, endogenous (mouse (endogenous in 3T3-L1)) |  | no binding (only cytoplasmic fraction) | no binding (only PKCε knocked down by siRNA) | binds | binds | binds | binds | binds

Where a chain is given by its changes, count along the chain named. No constants are given. Whether binding was seen depends on the method and setting. In cells and extracts the contact can be indirect. For some assays here: Binding calls can cover weak binding; strength is not graded here.
